Data from the supplement of paper PMC3334620.
Over roughly 33,000 sequences, “E-score (-0.5 to 0.5)” has its median near -0.0059; the highest 2% begin near 0.26. This is one part of the list.

Biological target: T1, Cin5 (UniProt P40917)
T1 sequence: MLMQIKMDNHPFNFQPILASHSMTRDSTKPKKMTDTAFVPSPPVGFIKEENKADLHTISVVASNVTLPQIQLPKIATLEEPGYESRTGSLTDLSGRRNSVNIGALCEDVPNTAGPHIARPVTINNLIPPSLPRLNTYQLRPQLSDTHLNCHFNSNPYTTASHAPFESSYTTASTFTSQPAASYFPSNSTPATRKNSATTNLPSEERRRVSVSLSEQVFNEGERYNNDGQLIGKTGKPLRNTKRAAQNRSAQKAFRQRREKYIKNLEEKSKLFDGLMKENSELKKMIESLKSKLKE
Test: PBM E-score (8-mer binding enrichment) (E-score (-0.5 to 0.5)); higher = stronger / more preferred TF binding
Conditions: protein concentration: 100 nM; construct: GST-full length
Outline: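 Detection of bound protein used fluorescent anti-GST, with scans normalised by masliner. The proteins were GST-tagged yeast transcription factors applied at about 100-200 nM to universal all-10-mer Agilent arrays made double-stranded by primer extension. Each ungapped eight-base word, pooled with its reverse complement, was scored with an E-score from the Universal PBM Analysis Suite.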

In order of falling “PBM E-score” value:
1. ATTAACAA  0.274
2. ATCATTCG  0.256
3. AATCGATA  0.247
4. ATGTGTTG  0.24
5. GCATATCA  0.234
6. CAACATGA  0.232
7. ATAAGTCA  0.229
8. ATCGCGAG  0.197
9. GAAGTTAC  0.196
10. AAAATCAC  0.194
11. CAAATTAA  0.191
12. AAACCAAT  0.188
13. GCTTTGTA  0.174
14. ACTTATAA  0.172
15. CCAATACA  0.171
16. AGTAAATG  0.168
17. ATTGCATG  0.166
18. ATTTGCTA  0.166
19. CGAAAAAA  0.159
20. AATACAAT  0.154
21. GGAATTAA  0.145
22. AGCAGTAT  0.145
23. AAAGTTCG  0.141
24. ATCCACTA  0.134
25. CCTATCCC  0.133
26. CAGTTCCA  0.119
27. TACCAGCA  0.117
28. CCAAAATC  0.11
29. GATATAGC  0.109
30. AATTACAG  0.107
31. AATAGTTA  0.105
32. CACCATAA  0.104
33. CATGACGA  0.103
34. AACGTATT  0.103
35. GGAAACCC  0.101
36. CTTCACGC  0.0975
37. GTATTTTA  0.0961
38. ATCACCTA  0.0946
39. GGGATGTA  0.0944
40. GCGCCACA  0.0939
41. ATGAGATC  0.0882
42. CCCGCGAG  0.0785
43. CGAACCAA  0.0772
44. CATTCTGC  0.0745
45. AGTAGCAG  0.0739
46. CAATCGAA  0.0731
47. AACTCAGA  0.0722
48. TAAACAGA  0.0674
49. AGATGGCG  0.0661
50. CCGATTGA  0.0661
51. TCTGAGAA  0.0605
52. CACCATCA  0.0581
53. CCTCAACA  0.0578
54. CAAAGGAG  0.0549
55. AAGTGGAG  0.0547
56. ACCTGTGA  0.0529
57. AATCATGC  0.052
58. GACACATC  0.0514
59. AGATACGG  0.0474
60. AAGAGCCA  0.0467
61. ACGGTACA  0.0466
62. AAGAGACC  0.0456
63. AAGTAGTC  0.0452
64. AACCCGCA  0.0428
65. CAAAACGA  0.0397
66. CCGTTTCC  0.0386
67. CCGGAAAC  0.0344
68. ATCCCGTC  0.0343
69. GTATTGAC  0.0334
70. ATCCGTTC  0.0322
71. AAAATTTT  0.0314
72. GATGTTAC  0.0289
73. TCATGAGA  0.023
74. GACACTCC  0.0166
75. AGTCAAGA  0.0158
76. GTAGAAAC  0.0147
77. GGCATAGA  0.0143
78. GTTTCTCA  0.0125
79. AAGTGGCT  0.0123
80. ACTCATCA  0.0115
81. ATAAAGAG  0.0111
82. GACAAGCC  0.00939
83. GAATGACC  0.00803
84. GACGGCCA  0.0076
85. GCGTTAAA  0.00644
86. ACCCAGTC  0.00535
87. AGTCCTAT  0.00257
88. AGACGCCC  0.00127
89. CCATGGCG  4e-05
90. ATCCAATG  -0.00595
91. AGGCACCA  -0.0194
92. GCGCCGTA  -0.0196
93. AAGCTGGA  -0.0206
94. CACACTGC  -0.0218
95. CGTCGACA  -0.0223
96. ACCGTTAT  -0.0275
97. CAGCTAAA  -0.0291
98. CTGCGATA  -0.03
99. GGGGAAAC  -0.0321
100. GATTGTAC  -0.0353
101. GGGATGGA  -0.0407
102. TCCCAACA  -0.0407
103. CATACAAG  -0.0434
104. CTCATGGA  -0.0437
105. CGAAGCAA  -0.0443
106. TCGATAGA  -0.0445
107. CTTACCTC  -0.0461
108. GTCTCGTA  -0.0497
109. AACGTGAT  -0.0506
110. AAGGTGAA  -0.0511
111. AACGATCC  -0.0525
112. AAATTTTA  -0.0545
113. CACTGATG  -0.0558
114. CTCAAGCA  -0.0562
115. ATCCTGAG  -0.0584
116. ACGACCGA  -0.0622
117. AAAATGCA  -0.0683
118. AGCCACTC  -0.0694
119. GGTCAGAA  -0.0712
120. AATGGTCG  -0.0729
121. CCTTTTAA  -0.0794
122. TAACGTGA  -0.0816
123. CACAGTGC  -0.0827
124. AAACGTGT  -0.0863
125. AGGCTTGG  -0.0873
126. AACTGGTG  -0.0874
127. ACACATGC  -0.0902
128. CATGTTCG  -0.0998
129. ATGTGCCA  -0.102
130. GAGGATCC  -0.105
131. CTCCGAAC  -0.108
132. CTTAAAGC  -0.108
133. CGCTGCAG  -0.109
134. TAAAGGGA  -0.115
135. CCACTGGA  -0.116
136. CCATGAGC  -0.119
137. CAAGGCCG  -0.123
138. ACTCTCAG  -0.124
139. CGCTCAAG  -0.124
140. ACTTTGAG  -0.126
141. AACGGTGA  -0.126
142. CCTTTCCG  -0.127
143. ATCCCAGC  -0.131
144. GAACACCA  -0.138
145. CTCCCGAA  -0.143
146. AAGTCCGA  -0.146
147. AGAGCCCG  -0.148
148. GGACTTAA  -0.15
149. TCAGAGGA  -0.154
150. AGGTGTGG  -0.156
151. TAGAGGCA  -0.158
152. ACGCTGCG  -0.164
153. CACGACGA  -0.168
154. ACGCCTAC  -0.177
155. GTCTAGGA  -0.178
156. CCTCCAAG  -0.185
157. CGTCCCTC  -0.187
158. GGGGAGAC  -0.187
159. CAAGCCGC  -0.189
160. GCAGACTA  -0.196
161. ACCCTGCT  -0.201
162. GCCTTTCC  -0.202
163. CCTTCCGC  -0.205
164. CAAGCCCG  -0.206
165. CAGTCCTC  -0.211
166. CAAGCCCA  -0.212
167. CCCTGCCC  -0.219
168. AACCGTAG  -0.244
169. CCAGGAGC  -0.258
170. CCGAAAGC  -0.328
171. GGGAGCAC  -0.337
172. AAGGGGGT  -0.486
